Reference: patent US20230114728A1 (Venatorx Pharmaceuticals, Inc., priority 2019, published 2023)
At least one structure is not confirmed: it was looked up by name or label, or the drawing left a doubt.

By UniProt entry, the sequences of proteins in these tests, tags left out. Where a name states a change or a piece, a line headed by the entry shows the natural chain unless it says otherwise.
UniProt G3XD46: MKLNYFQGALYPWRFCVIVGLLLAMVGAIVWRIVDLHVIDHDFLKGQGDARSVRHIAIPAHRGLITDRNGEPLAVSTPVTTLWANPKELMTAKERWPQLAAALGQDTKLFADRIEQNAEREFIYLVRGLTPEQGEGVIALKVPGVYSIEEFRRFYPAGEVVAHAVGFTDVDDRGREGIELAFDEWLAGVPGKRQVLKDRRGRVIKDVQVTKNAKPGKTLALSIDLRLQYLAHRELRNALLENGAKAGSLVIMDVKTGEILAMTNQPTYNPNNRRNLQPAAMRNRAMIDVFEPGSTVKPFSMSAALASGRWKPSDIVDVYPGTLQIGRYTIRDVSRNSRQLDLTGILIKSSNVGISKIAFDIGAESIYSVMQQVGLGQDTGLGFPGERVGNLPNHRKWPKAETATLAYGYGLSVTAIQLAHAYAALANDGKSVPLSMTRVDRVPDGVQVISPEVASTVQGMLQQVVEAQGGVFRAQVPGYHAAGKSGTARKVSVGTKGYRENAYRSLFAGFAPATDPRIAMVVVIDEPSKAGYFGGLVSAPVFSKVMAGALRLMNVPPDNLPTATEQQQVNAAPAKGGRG

What follows are compounds tested against T1, P. aeruginosa PBP3 (Pseudomonas aeruginosa, UniProt G3XD46) (assay: Bocillin-FL fluorescence polarization competition binding assay, P. aeruginosa PBP3). Conditions: fluorescence polarization competition binding assay using Bocillin-FL.
T1 construct: made in house
Excerpt: Example I: Experimental Method for Penicillin-Binding Protein Binding Assays with Bocillin-FL Via Fluorescence Polarization
To determine the ability of boronic acid-based test PBP inhibitors to bind Penicillin Binding Proteins (PBPs), Bocillin-FL (fluorescently-labeled penicillin V; ThermoFisher Scientific) was used in a fluorescence polarization (FP) competition binding assay to assess inhibitor binding to PBP2, PBP3 or PBP4 from Escherichia coli (K12), PBP3 from Pseudomonas aeruginosa (PA01), PBP1a, PBP2 and PBP3 from Acinetobacter baumannii (ATCC 19606), and PBP2 from Neiserria gonorrheae (FA19). PBPs were cloned and purified as described previously (E. coli PBPs, King, D. T, et al., ACS Infectious Diseases 2015, 1, 175-184; P. aeruginosa PBP3, Han et. al., PNAS 2010, 107 (51), 22002-22007; A. baumannii PBPs, Penwell et. al., Antimicrob. Agents Chemother. 2015, 59 (3), 1680-1689; N. gonorrhoeae PBP2, Singh et. al., J Biol. Chem. 2019, 294 (38), 14020-14032). To establish assay conditions for competition binding, enzyme titration/saturation binding experiments were initially performed. Bocillin-FL was prepared at 0.2 μM in a buffer comprised of 50 mM Hepes (pH 8.0), 300 mM NaCl and 5% (v/v) glycerol for reactions with E. coli, P. aeruginosa and N. gonorrhoeae PBPs, and 25 mM Tris (pH 8.0), 200 mM NaCl and 10% (v/v) glycerol and 0.005% (v/v) Tween 20 for reactions with A. baumannii PBPs. Saturation binding was performed by mixing 40 μl of PBP solutions ranging in concentrations from 0-24 μM with 40 μl of the 0.2 μM Bocillin-FL solution, in individual wells of a black 384-well microplate. FP was measured immediately upon mixing (Excitation, 490 nm; Emission, 520 nm; g-factor, 0.96), using a Cytation3 (BioTek) microplate reader and measured continuously for up to 120 minutes. […] The competition binding assay (80 μl final volume) was validated using beta-lactams and PBPs at final concentrations of: 1.5 μM, E. coli PBP3; 0.75 μM, P. aeruginosa PBP3; 1 μM A. baumannii PBP1a; 2.5 μM A. baumannii PBP2; 0.2 μM A. baumannii PBP3; and […] N. gonorrhoeae PBP2. Bocillin-FL was at 0.1 μM (0.05 μM with A. baumannii PBP1a) and beta-lactam concentrations ranged from 0-1000 μM. […] Bocillin-FL was added and the FP immediately measured for up to 60 minutes (90 minutes for E. coli PBP2). […] The beta-lactam potency was reported as the concentration of beta-lactam required to reduce the amount of PBP bound-Bocillin-FL by 50% (EC50). […] Binding assays for boronic acid PBP inhibitors were performed in an identical fashion for the respective PBPs

Question: `CCN1CCN(C(=O)NC(C(=O)N[C@H]2Cc3cccc(C(=O)O)c3OB2O)c2ccc(C(=O)O)c([N+](=O)[O-])c2)C(=O)C1=O` (stereo partly drawn) [Example 220, (3R)-3-(2-(4-carboxy-3-nitrophenyl)-2-(4-ethyl-2,3-dioxopiperazine-1-carboxamido)acetamido)-2-hydroxy-3,4-dihydro-2H-benzo[e][1,2]oxaborinine-8-carboxylic acid] was tested. Which “P. aeruginosa PBP3 Potency” value did it give?
Answer: Its value is “D (D represents a potency <10 μM)”.

Question: `NC1(CN2CCN(C(=O)N[C@@H](C(=O)N[C@H]3Cc4cccc(C(=O)O)c4OB3O)c3ccc(O)c(F)c3F)C(=O)C2=O)CC1` (single isomer, unassigned) [Example 236] was tested. Which “P. aeruginosa PBP3 Potency” value did it give?
Answer: Its value is “D (D represents a potency <10 μM)”.

Question: Which “P. aeruginosa PBP3 Potency” value does the source give for `CCN1CCN(C(=O)N[C@@H](C(=O)N[C@H]2Cc3cccc(C(=O)O)c3OB2O)c2c(O)cc(O)cc2F)C(=O)C1=O` (single isomer, unassigned) [Example 182] here?
Answer: The value was “D (D represents a potency <10 μM)”.

Question: `CCN1CCN(C(=O)NC(C(=O)N[C@H]2Cc3ccc(SCC[N+]4(C)CCCC4)c(C(=O)O)c3OB2O)c2csc(N)n2)C(=O)C1=O.O=C([O-])C(F)(F)F` (stereo partly drawn) [Example 65, 1-(2-(((3R)-3-(2-(2-aminothiazol-4-yl)-2-(4-ethyl-2,3-dioxopiperazine-1-carboxamido)acetamido)-8-carboxy-2-hydroxy-3,4-dihydro-2H-benzo[e][1,2]oxaborinin-7-yl)thio)ethyl)-1-methylpyrrolidin-1-ium 2,2,2-trifluoroacetate] was tested. Which “P. aeruginosa PBP3 Potency” value did it give?
Answer: The value was “B (B represents a potency between 30 μM and 500 μM inclusive)”.

Question: Which “P. aeruginosa PBP3 Potency” value does the source give for `NCCN1CCCN(C(=O)N[C@H](C(=O)N[C@H]2Cc3cccc(C(=O)O)c3OB2O)c2c(F)cc(O)cc2F)C1=O` (single isomer, unassigned) [Example 231] here?
Answer: Its value is “B (B represents a potency between 30 μM and 500 μM inclusive)”.

Question: With `O=C(O)c1cccc2c1OB(O)[C@@H](NC(=O)C(NC(=O)N1CCN(CCF)C(=O)C1=O)c1ccc(O)c(F)c1F)C2` (stereo partly drawn) [Example 235, (3R)-3-(2-(2,3-difluoro-4-hydroxyphenyl)-2-(4-(2-fluoroethyl)-2,3-dioxopiperazine-1-carboxamido)acetamido)-2-hydroxy-3,4-dihydro-2H-benzo[e][1,2]oxaborinine-8-carboxylic acid] as the compound, how does the “P. aeruginosa PBP3 Potency” value read?
Answer: Its value is “D (D represents a potency <10 μM)”.

Question: For `CCN1CCN(C(=O)NC(C(=O)N[C@H]2Cc3cccc(C(=O)O)c3OB2O)c2c(F)cc(N)cc2F)C(=O)C1=O` (stereo partly drawn) [Example 181, (3R)-3-(2-(4-amino-2,6-difluorophenyl)-2-(4-ethyl-2,3-dioxopiperazine-1-carboxamido)acetamido)-2-hydroxy-3,4-dihydro-2H-benzo[e][1,2]oxaborinine-8-carboxylic acid], which “P. aeruginosa PBP3 Potency” value is on record?
Answer: Its value is “D (D represents a potency <10 μM)”.

Question: `CCN1CCN(C(=O)N[C@H](C(=O)N[C@H]2Cc3ccc(F)c(C(=O)O)c3OB2O)c2ccc(O)c(O)c2)C(=O)C1=O` [Example 210, (R)-3-((S)-2-(3,4-dihydroxyphenyl)-2-(4-ethyl-2,3-dioxopiperazine-1-carboxamido)acetamido)-7-fluoro-2-hydroxy-3,4-dihydro-2H-benzo[e][1,2]oxaborinine-8-carboxylic acid] was tested. Which “P. aeruginosa PBP3 Potency” value did it give?
Answer: Its value is “B (B represents a potency between 30 μM and 500 μM inclusive)”.

Question: How did the “P. aeruginosa PBP3 Potency” value turn out when `NC1(CN2CCN(C(=O)N[C@H](C(=O)N[C@H]3Cc4cccc(C(=O)O)c4OB3O)c3ccc(O)c(F)c3F)C(=O)C2=O)CC1` (single isomer, unassigned) [Example 237] was run?
Answer: The value was “D (D represents a potency <10 μM)”.

Question: How did the “P. aeruginosa PBP3 Potency” value turn out when `C[C@H]1CN(CCF)C(=O)C(=O)N1C(=O)N[C@@H](C(=O)N[C@H]1Cc2cccc(C(=O)O)c2OB1O)c1ccc(O)c(F)c1F` [Example 241, (3R)-3-(2-(2,3-difluoro-4-hydroxyphenyl)-2-((S)-4-(2-fluoroethyl)-6-methyl-2,3-dioxopiperazine-1-carboxamido)acetamido)-2-hydroxy-3,4-dihydro-2H-benzo[e][1,2]oxaborinine-8-carboxylic acid] was run?
Answer: Its value is “D (D represents a potency <10 μM)”.

Question: `C[C@H]1CN(CCN)C(=O)C(=O)N1C(=O)N[C@@H](C(=O)N[C@H]1Cc2cccc(C(=O)O)c2OB1O)c1ccc(O)c(F)c1F` [Example 242, (3R)-3-(2-((S)-4-(2-aminoethyl)-6-methyl-2,3-dioxopiperazine-1-carboxamido)-2-(2,3-difluoro-4-hydroxyphenyl)acetamido)-2-hydroxy-3,4-dihydro-2H-benzo[e][1,2]oxaborinine-8-carboxylic acid] was tested. Which “P. aeruginosa PBP3 Potency” value did it give?
Answer: The value was “D (D represents a potency <10 μM)”.
